Measured values: article PMC11984897
These are yes or no findings as the source states them, for the method shown. Binding seen in cells or lysates may run through a third protein. Some binding calls cover weakened binding; strength is not graded here. Where a sequence is shown, tags or fusion partners need not be part of it.

Chains of the proteins cited; added tags and fusions are not shown.
UniProt P35222: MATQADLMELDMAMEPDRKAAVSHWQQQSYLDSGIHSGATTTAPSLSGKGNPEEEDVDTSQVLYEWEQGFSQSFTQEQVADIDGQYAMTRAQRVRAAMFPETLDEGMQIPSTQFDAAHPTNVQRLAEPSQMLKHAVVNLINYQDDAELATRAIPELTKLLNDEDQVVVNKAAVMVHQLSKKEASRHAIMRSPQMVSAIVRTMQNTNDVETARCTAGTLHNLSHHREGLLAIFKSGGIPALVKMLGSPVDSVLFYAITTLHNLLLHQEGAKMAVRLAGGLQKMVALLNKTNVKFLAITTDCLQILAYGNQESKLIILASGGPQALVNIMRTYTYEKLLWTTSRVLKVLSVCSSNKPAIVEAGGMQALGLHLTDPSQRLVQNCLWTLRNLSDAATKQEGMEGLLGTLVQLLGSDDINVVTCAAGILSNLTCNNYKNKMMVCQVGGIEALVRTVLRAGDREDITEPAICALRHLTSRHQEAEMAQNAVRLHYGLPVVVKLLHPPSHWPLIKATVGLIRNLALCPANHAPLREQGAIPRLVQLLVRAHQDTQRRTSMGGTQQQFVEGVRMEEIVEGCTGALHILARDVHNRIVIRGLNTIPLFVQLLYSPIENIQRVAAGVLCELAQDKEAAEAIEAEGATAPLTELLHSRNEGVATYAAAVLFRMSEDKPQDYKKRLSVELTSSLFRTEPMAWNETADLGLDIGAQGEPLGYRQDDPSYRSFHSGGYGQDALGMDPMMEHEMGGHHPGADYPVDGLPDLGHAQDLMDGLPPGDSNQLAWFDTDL

Target: T1, FLAG-tagged HDAC7 (histone deacetylase 7) (UniProt Q8WUI4)
T1 sequence: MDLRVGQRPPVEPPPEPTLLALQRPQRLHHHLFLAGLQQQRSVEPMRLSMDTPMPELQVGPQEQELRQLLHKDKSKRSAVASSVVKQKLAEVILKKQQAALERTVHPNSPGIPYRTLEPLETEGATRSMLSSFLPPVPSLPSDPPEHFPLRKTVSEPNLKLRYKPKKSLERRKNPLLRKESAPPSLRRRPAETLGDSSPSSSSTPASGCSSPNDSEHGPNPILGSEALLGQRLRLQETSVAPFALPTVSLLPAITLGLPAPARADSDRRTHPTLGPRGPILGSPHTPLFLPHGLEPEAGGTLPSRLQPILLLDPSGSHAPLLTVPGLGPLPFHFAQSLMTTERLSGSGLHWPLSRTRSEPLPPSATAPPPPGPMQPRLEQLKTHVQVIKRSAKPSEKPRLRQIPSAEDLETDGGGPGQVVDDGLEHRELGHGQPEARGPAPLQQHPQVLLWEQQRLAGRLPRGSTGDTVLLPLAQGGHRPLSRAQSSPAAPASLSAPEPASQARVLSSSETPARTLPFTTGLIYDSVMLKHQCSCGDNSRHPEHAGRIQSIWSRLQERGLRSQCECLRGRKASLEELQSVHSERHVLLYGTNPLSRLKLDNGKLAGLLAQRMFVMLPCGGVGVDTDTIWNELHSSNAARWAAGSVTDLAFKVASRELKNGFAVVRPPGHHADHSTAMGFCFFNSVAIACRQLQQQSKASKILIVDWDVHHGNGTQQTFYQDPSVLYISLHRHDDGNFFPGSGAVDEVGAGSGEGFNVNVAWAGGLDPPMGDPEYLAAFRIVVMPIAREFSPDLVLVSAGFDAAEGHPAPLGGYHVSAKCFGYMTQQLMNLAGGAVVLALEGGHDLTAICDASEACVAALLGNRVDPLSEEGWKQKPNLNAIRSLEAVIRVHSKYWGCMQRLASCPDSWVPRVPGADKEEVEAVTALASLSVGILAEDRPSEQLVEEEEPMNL
Test: co-IP; lysate (1 mg) of NCI-H1688 and SW1271 cells transfected with FLAG-tagged HDAC7; Flag antibody (10 µg) and protein A/G magnetic beads overnight at 4 °C; western blotting for HDAC7 and β-catenin

binding: binds
Substance: β-catenin (from UniProt P35222 1-781)
